According to the supplement of paper PMC3334620:
Whole data set: some 33,000 sequences, median “E-score (-0.5 to 0.5)” near -0.0059, cut for the highest 2% near 0.26. The list shows a part of the results.

target: T1, Cin5 (UniProt P40917); test: PBM E-score (8-mer binding enrichment) (E-score (-0.5 to 0.5)); higher = stronger / more preferred TF binding; conditions: protein concentration: 100 nM; construct: GST-full length
T1 sequence: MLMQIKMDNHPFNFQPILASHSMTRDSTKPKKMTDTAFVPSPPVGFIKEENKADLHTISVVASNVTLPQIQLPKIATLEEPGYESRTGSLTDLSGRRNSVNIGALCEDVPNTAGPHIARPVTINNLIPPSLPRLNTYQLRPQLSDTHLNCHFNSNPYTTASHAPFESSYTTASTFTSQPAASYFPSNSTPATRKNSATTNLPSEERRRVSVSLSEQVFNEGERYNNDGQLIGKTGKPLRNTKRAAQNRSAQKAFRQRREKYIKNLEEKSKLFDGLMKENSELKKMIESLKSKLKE
Method in brief: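 Yeast transcription factors carrying a GST tag, as full-length proteins or DNA-binding domains, were produced by PURExpress in vitro transcription/translation. About 100-200 nM protein was applied to universal all-10-mer Agilent arrays, double-stranded by primer extension on fresh or once-stripped slides. Bound protein was detected with fluorescent anti-GST, and scans were normalised with masliner. The Universal PBM Analysis Suite gave each ungapped eight-base word, pooled with its reverse complement, an E-score, a modified Wilcoxon-Mann-Whitney statistic.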

Sequence | PBM E-score
GGGCGCAC | -0.28
CTCCCTAC | -0.12
CAGTATCC | 0.0471
CGGATAAC | 0.0563
GAACCGAC | 0.00921
CGTGGTCA | -0.0679
ATAAAATG | 0.212
AATATTAC | 0.294
ACTCTGGC | -0.0926
GCGCGTTA | 0.0369
AGCGTCAA | -0.0654
AGAGTCAT | -0.211
ATTGACGC | 0.0226
ACTTCGAA | -0.0401
ACCCCCAC | -0.499
TAAGGGGA | -0.0738
ATAACAAT | 0.158
ATCATCGG | -0.0926
ACTTATAG | 0.0109
AAGCGAGT | 0.213
ATTAAAAG | 0.0602
ATAAAGAC | -0.0136
ATCCGCTC | -0.0897
ATCGCCAT | 0.0802
AAACGCGA | 0.0555

Two entries from above, as tab-separated lines.
Sequence	PBM E-score
ACTCTGGC	-0.0926
GCGCGTTA	0.0369

Laid out differently: results already given
ACTCTGGC
  PBM E-score = -0.0926
ATAACAAT
  PBM E-score = 0.158
ATCATCGG
  PBM E-score = -0.0926

The results go on.

Sequence | PBM E-score
GTCGCGTA | 0.054
GAAGGGGC | -0.222
TGAGAACA | 0.0792
CATCTTGG | 0.0766
CATCGGCA | -0.113
AGTGATAT | 0.0781
CGAAGTAC | 0.0621
GGATTACA | 0.19
ACACACAC | -0.0287
CGAGAATA | 0.253
AGACCAAT | 0.0449
AGGGCGGG | 0.0413
TACTTGAA | 0.0539
GCAGTACA | -0.163
CAACGAAG | -0.158
CTACCAAG | -0.0838
AAGGCCAG | -0.137
AGCGTACT | 0.0381
ATATGTTG | 0.172
AGGTGCAA | -0.0194
GTCGAGAA | 0.00963
GGAAATCA | 0.0625
CCCCAAAG | -0.236
ATGGACAG | -0.15
ATATCTCC | 0.173

A different layout for some results above:
ACACACAC
  PBM E-score: -0.0287
CGAGAATA
  PBM E-score: 0.253
ATATGTTG
  PBM E-score: 0.172
ATGGACAG
  PBM E-score: -0.15

Continued:

Sequence | PBM E-score
GTGAAGAA | 0.0248
CAGTAGCC | -0.312
AAATCGCT | -0.124
AAGATCGC | -0.0416
CCGGGAAG | -0.021
AGAGTATG | -0.118
CGATACAG | -0.0635
CCAATTTC | 0.137
ACACGTCC | -0.246
CCGTCCGA | -0.221
AGGTTAAC | 0.107
CATTGACG | 0.0763
CCGTAGCA | -0.158
GAACGAAA | 0.131
CCAGTGGG | -0.18
ACCTTTGC | -0.0674
ATAGAGTC | -0.111
GGTACTTA | -0.0151
AGTTTATC | 0.159
CTTTGCCA | -0.0807
ATTGCGGC | -0.0538
CTGGAGGC | -0.117
ATTATCTG | 0.152
ACCGCAAA | -0.00101
AATTCTTA | 0.0553

Sequence | PBM E-score
CCCGGGAA | 0.0212
ATTCGGGA | 0.0693
CCATCGTA | 0.0405
GACAGACA | 0.16
AACATGTC | 0.0503
CGACAACG | -0.0949
AACTGCGG | 0.124
ATTAACGA | 0.156
AATAGAGG | -0.0845
CCGCCGAG | -0.0417
ATCTTACG | 0.164
AAGTTTGG | 0.155
AACTAAGT | 0.0793
CCTTCACG | -0.0963
CCCTGCAG | -0.00831
CGTGAGAG | -0.215
GGCCAAGA | -0.16
CCAAAGTC | -0.128
GGCTGGAA | -0.165
ATGTGTCC | 0.156
CGTTTTGC | -0.0443
GCTGGGGA | -0.118
CTCGCACA | 0.0581
CTGACAGC | -0.0364
CAAAAACC | 0.119

Sequence | PBM E-score
GCATTACA | 0.167
CTATTCAC | 0.0503
AAAACCCG | -0.0221
AAGAGTGT | -0.135
CAAGAAGA | 0.059
GGGTTAGA | -0.138
GATAGGAC | -0.108
CATCAACG | -0.0328
ACATCACT | 0.103
TGGTACCA | -0.0573
ACGACATG | 0.0532
CAGCAATC | 0.128
ACCTACAT | 0.0732
GGGGCTAC | -0.174
ACGGTACT | -0.0767
GGATAGAC | -0.0962
CGCAAGAG | 0.0169
CACGAACC | -0.0882
AACATGAT | 0.213
TAATCCTA | 0.0386
AAGCGATC | 0.138
AAACACAC | 0.115
TATGGAAA | 0.144
CGCCGAAA | -0.0208
CGGACATC | -0.181

Sequence | PBM E-score
AGTGGATC | 0.0279
ATATGGCG | 0.0981
GGTCAAGA | -0.0334
CGCGGACC | -0.0694
CCTACTAG | 0.0186
CAGGATCA | -0.0583
CAGGGTAA | 0.0479
AAAATAAC | 0.0095
AGCACACG | -0.156
CACGTGAA | 0.0749
AGCCCAAT | 0.033
CCACTGGG | -0.186
CCTTTGTA | -0.192
AGGCAATC | -0.0506
ACTTTTCA | 0.0559
ACGAATGC | 0.125
GTCGGCAC | -0.12
AAGTACGT | 0.103
CGGGATCA | -0.0535
ATCGCTTG | -0.121
GCCGAGAC | -0.0722
GCACTCCA | -0.111
ACTTTCAG | -0.0983
CACTCCGC | 0.0904
CATATCTC | 0.124

Sequence | PBM E-score
ACGATCAT | 0.0555
GGTACGAC | -0.169
CATCCCAA | 0.0478
CAGACAGA | 0.0973
GGCTACTA | 0.0982
CTCGATGC | 0.11
CCACAGAA | -0.0301
GAAAACGC | -0.153
ATTGGGTA | 0.0825
AATCGCAC | -0.0212
AACACGAT | 0.16
ATTTATTC | 0.119
GGTACATA | 0.114
GATCGATA | 0.147
ACTAGAAC | 0.0319
ACTTGCCA | -0.036
CTCATAGC | -0.189
AGGGGGAT | -0.278
GAATTTTA | 0.121
ATGTGAGG | 0.0534
ATTATAGA | 0.123
CACTTAGG | -0.226
